Measured values published in PubChem BioAssay AID1671190 (National Center for Advancing Translational Sciences (NCATS), 2021).
Among all 580,000 compounds or so, about 6,100 (1.1%) were called active. This list was built around the results that the source calls inconclusive (neither active nor inactive); the mix of calls is not that of the screen. Calls come from the whole dose curve; as a rule, active = well fitted inhibition curve with a large enough effect; inconclusive = small, poorly fitted or top-dose-only effect, or another doubt; inactive = no such curve, though single readings can be large or run the other way. Where the call is inconclusive, the potency comes from a doubtful curve fit.

Amino acid sequences for entries named in this document (tags omitted). A change or cut given only in a name is not applied to a line headed by its entry.
UniProt P18054: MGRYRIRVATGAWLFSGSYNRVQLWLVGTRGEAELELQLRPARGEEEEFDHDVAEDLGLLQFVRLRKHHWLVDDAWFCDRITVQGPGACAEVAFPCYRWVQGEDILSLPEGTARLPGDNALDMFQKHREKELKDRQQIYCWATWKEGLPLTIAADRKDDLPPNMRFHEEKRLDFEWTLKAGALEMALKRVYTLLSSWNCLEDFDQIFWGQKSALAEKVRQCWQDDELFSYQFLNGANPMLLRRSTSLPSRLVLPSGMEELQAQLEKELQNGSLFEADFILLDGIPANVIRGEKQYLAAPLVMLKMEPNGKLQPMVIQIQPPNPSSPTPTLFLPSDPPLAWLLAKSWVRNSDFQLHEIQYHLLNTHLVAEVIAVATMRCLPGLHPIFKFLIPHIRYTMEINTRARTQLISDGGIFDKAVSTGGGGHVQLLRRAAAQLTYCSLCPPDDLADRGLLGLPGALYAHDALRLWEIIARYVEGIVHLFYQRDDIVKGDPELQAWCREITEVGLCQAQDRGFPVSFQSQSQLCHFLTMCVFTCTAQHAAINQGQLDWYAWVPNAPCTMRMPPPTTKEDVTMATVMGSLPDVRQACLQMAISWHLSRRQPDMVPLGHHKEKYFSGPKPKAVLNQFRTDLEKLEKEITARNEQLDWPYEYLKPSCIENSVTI

What follows are compounds tested against Polyunsaturated fatty acid lipoxygenase ALOX12 (Homo sapiens) (UniProt P18054) (assay: Primary qHTS assay for inhibitors of human arachidonate 12S-lipoxygenase (ALOX12): Round 2). Conditions: purified 12hLO, xylenol orange hydroperoxide absorbance; series mostly up to 108 µM.
Procedure, shortened: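 Hydroperoxide product was detected by ferrous iron/xylenol orange as the 573 to 405 nm absorbance ratio. Arachidonic acid at 40 uM (final) was turned over for 30 min at room temperature by 150 nM human 12hLO, pH 7.0 Hepes buffer, after 15 min compound preincubation.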
Potency is the fitted concentration of half-maximal effect.

| SMILES | Potency |
| --- | --- |
| CCN(CC)S(=O)(=O)c1ccc(C)c(NS(=O)(=O)c2c(C)c(C)cc(C)c2C)c1 | inactive |
| COC(=O)[C@]1(Cc2ccccc2)N[C@H](CN(C)C(=O)Nc2ccc(OC)cc2)[C@@H]2C(=O)N(Cc3ccccc3)C(=O)[C@@H]21 | inconclusive: 35.5 µM [inhibitor, single point] |
| O=C(O)Cc1ccc(NC(=O)c2cccs2)cc1 | inconclusive: 89.1 µM [inhibitor, single point] |
| Cc1ccc(C(NC(=O)Cc2n[nH]c(=O)c3ccccc23)C2CC2)cc1 (centres undefined) | inactive |
| Cc1ccc(C(=O)OCC(=O)Nc2ccc(F)c(Cl)c2)o1 | inconclusive: 25.1 µM [inhibitor, partial curve, poor fit] |
| CC1(C)CC(Nc2nccc(-c3cnn(-c4ccccc4)c3)n2)CC(C)(C)N1 | inactive |
| C#CCOCCOCCOCCNc1nc(N2CCN(C(=O)[C@H](CCCCN)n3cc(CN)nn3)CC2)nc(N2CCN(C(=O)[C@H](CCCCN)n3cc(CN)nn3)CC2)n1 | inconclusive: 7.94 µM [inhibitor, full curve] |
| CCOC(=O)c1nn(-c2ccccc2C)c(=O)c2c(N)scc12 | inconclusive: 5.01 µM [inhibitor, full curve, poor fit] |
| Cc1ccc(/C=C2\SC(N3CCN(C(c4ccccc4)c4ccccc4)CC3)=NC2=O)o1 | active: 3.55 µM |
| O=C(Nc1ccc(C(=O)N2CCCC2)cc1)C1CC1 | inconclusive: 0.794 µM [inhibitor, full curve, poor fit] |
| NS(=O)(=O)c1ccc(CCNC(=O)c2ccc(Cl)s2)cc1 | inconclusive: 112 µM [inhibitor, single point] |
| CC(C)(C)NC(=O)C[C@H]1C[C@H](C(=O)N2CCCCC2)[C@@]2(CCc3ccccc3)c3[nH]c4cc(-c5ccco5)ccc4c3CCN2C1=O | inconclusive: 31.6 µM [inhibitor, partial curve, poor fit] |
| COc1ccc2oc(C(=O)Nc3ccc(N4CCOCC4)cc3)c(C)c2c1 | inconclusive: 20 µM [inhibitor, partial curve, poor fit] |
| Brc1ccc(OCc2cn3ccccc3n2)cc1 | inactive |
| O=C(/C=C/c1cccc(F)c1)NNC(=O)c1ccncc1 | inactive |
| COc1ccc(CCNC(=O)Nc2ccc3c(c2)c(=O)n(C)n3CC=C(C)C)cc1OC | inconclusive: 100 µM [inhibitor, single point] |
| COc1ccc2nc(COC(=O)c3ccco3)c(C(C)=O)[n+]([O-])c2c1 | inconclusive: 39.8 µM [inhibitor, partial curve, poor fit] |
| COc1cccc(-c2cccc(CCOc3cnc4c(ccn4CC(=O)O)c3)c2)c1 | inconclusive: 44.7 µM [inhibitor, partial curve] |
| COc1ccc(CNCC(O)COCc2cccs2)cc1 (centres undefined) | inconclusive: 7.94 µM [inhibitor, full curve, poor fit] |
| COC(=O)/C=C/c1ccc2c(c1)S(=O)(=O)N(Cc1ccc(OC)cc1)[C@H]2CC(=O)OC | inactive |
| Cc1cc(C(=O)O)c2c(C(C)C)nn(-c3ccc(F)cc3)c2n1 | inconclusive: 0.631 µM [inhibitor, full curve, poor fit] |
| Cc1cccc(/C=C/C(=O)O)c1C | inconclusive: 20 µM [inhibitor, partial curve, poor fit] |

At a glance, some entries already given.

| SMILES | Potency |
| --- | --- |
| Cc1ccc(C(NC(=O)Cc2n[nH]c(=O)c3ccccc23)C2CC2)cc1 (centres undefined) | inactive |
| Cc1ccc(C(=O)OCC(=O)Nc2ccc(F)c(Cl)c2)o1 | inconclusive: 25.1 µM [inhibitor, partial curve, poor fit] |
| CC1(C)CC(Nc2nccc(-c3cnn(-c4ccccc4)c3)n2)CC(C)(C)N1 | inactive |
| C#CCOCCOCCOCCNc1nc(N2CCN(C(=O)[C@H](CCCCN)n3cc(CN)nn3)CC2)nc(N2CCN(C(=O)[C@H](CCCCN)n3cc(CN)nn3)CC2)n1 | inconclusive: 7.94 µM [inhibitor, full curve] |

Next part.

| SMILES | Potency |
| --- | --- |
| CCOC(=O)C1CCCN(C2CC(=O)N(c3ccc(NC(C)=O)cc3)C2=O)C1 (centres undefined) | inconclusive: 5.62 µM [inhibitor, full curve] |
| CCc1nnc2sc(-c3ccc(CNC(=O)c4ccc(F)cc4)cc3)nn12 | inconclusive: 141 µM [inhibitor, partial curve, poor fit] |
| CC1(C(=O)NS(=O)(=O)c2cccc(OC(F)F)c2)CCN1C(=O)CCc1cccs1 (centres undefined) | inconclusive: 5.62 µM [inhibitor, full curve, poor fit] |
| O=C(N1CCN([S+](=O)([O-])Cc2ccccc2)CC1)N1CC2CC(C1)[C@H]1CCCC(=O)N1C2 (some centres undefined) | inactive |
| O=C(Nc1ccc2cn[nH]c2c1)c1ccc2c(c1)OCCN(c1ccccc1)C2 | inactive |
| OC1c2ccccc2N=C2CCCN21 (centres undefined) | inactive |
| CCS(=O)(=O)NCC1(COc2cccc(C)n2)C[C@@H](O)[C@@H](O)C1 (some centres undefined) | inconclusive: 35.5 µM [inhibitor, full curve] |
| CCOC(=O)c1cc(NC(=O)C(c2ccccc2)c2ccccc2)ccc1N1CCOCC1 | inconclusive: 1 µM [inhibitor, full curve, poor fit] |
| COc1cc(C(=O)Nc2cc(S(=O)(=O)N3CCOCC3)ccc2N2CCN(C)CC2)cc(OC)c1OC | inconclusive: 50.1 µM [inhibitor, partial curve, poor fit] |
| COC(=O)CCc1c(C)[nH]c(=S)[nH]c1=O | inconclusive: 50.1 µM [inhibitor, partial curve, poor fit] |
| O=c1c(-c2ccc(Cl)cc2)nc2cnc(N3CCNCC3)nc2n1CCc1ccccc1 | inconclusive: 39.8 µM [inhibitor, partial curve, poor fit] |
| CC(/C=C/c1ccccc1)=N/NC(=S)NC1CCCCC1 | inconclusive: 39.8 µM [inhibitor, partial curve, poor fit] |
| C=CCNC(=S)NCCCOC | inconclusive: 1.78 µM [inhibitor, full curve, poor fit] |
| COC(=O)c1ccccc1NC(=S)NC(=O)c1ccc(C)cc1 | active: 35.5 µM |
| O=C(Cn1nc(C(=O)O)c2ccccc2c1=O)Nc1ccc(F)c(Cl)c1 | inconclusive: 112 µM [inhibitor, single point] |
| CCC(=O)Nc1ccc(C2=Nn3c(nnc3C(C)C)SC2)cc1 | inconclusive: 31.6 µM [inhibitor, single point] |
| N#CCCn1cc(/C=C2\NC(=S)N(c3ccccc3)C2=O)c(-c2ccc(-c3ccccc3)cc2)n1 | inactive |
| CCNC(=S)NS(=O)(=O)c1ccc(Cl)cc1 | inconclusive: 3.55 µM [inhibitor, full curve, poor fit] |
| CN(C)c1ccc(S(=O)(=O)NCC(=O)NCCOc2ccccc2F)cc1[N+](=O)[O-] | inactive |
| O=C(C1=C(O)C(=O)N(CCN2CCOCC2)C1c1cccc([N+](=O)[O-])c1)c1cccs1 (centres undefined) | inconclusive: 35.5 µM [inhibitor, full curve, poor fit] |
| CC(C)CCCNC(=O)c1cn(C)c2ccccc12 | inactive |
| CCC1(CC)C(=O)C2=C3C1[C@H](C(=O)OC)C=C(C(=O)OC)C[C@H]3n1c(=O)n(-c3ccccc3)c(=O)n1[C@H]2C (some centres undefined) | inconclusive: 89.1 µM [inhibitor, single point] |

| SMILES | Potency |
| --- | --- |
| Cc1cc(C(F)(F)F)nn1CC(=O)Nc1cccnc1 | inactive |
| O=C(NCc1cccnc1)C1CCN(S(=O)(=O)c2cccc(OC(F)(F)F)c2)CC1 | inactive |
| CC(c1ccon1)N(C)Cc1cn(C)nc1-c1cccc(Cl)c1 (centres undefined) | inactive |
| CCc1ccc(/C=C/C(=O)C2C(=O)c3ccccc3C2=O)cc1 | inconclusive: 15.8 µM [inhibitor, full curve] |
| CC(C)[C@H]1c2ccc(F)cc2CC[C@@]1(CCN(C)CCCc1nc2ccccc2[nH]1)OC(=O)C1CC1 | inconclusive: 8.91 µM [inhibitor, full curve, poor fit] |
| Cc1ccc(NS(=O)(=O)c2ccc(N/N=C/c3cc(C)[nH]c3C)c([N+](=O)[O-])c2)c(C)c1 | inconclusive: 3.16 µM [inhibitor, full curve] |
| Cc1cc(C)c(C#N)c(SCc2ccccc2C)n1 | inactive |
| COc1cc(O)c2c(c1)C(=O)c1cc(C)cc(O)c1C2=O | inconclusive: 5.3 µM [inhibitor, partial curve, poor fit] |
| COc1ccc(CN2CCN(Cc3cccc(F)c3)CC2)cc1OC | inconclusive: 0.355 µM [inhibitor, full curve, poor fit] |
| O=C(COc1ccccc1)Nc1ccc(S(=O)(=O)N2CCCCCC2)cc1 | inconclusive: 112 µM [inhibitor, partial curve, poor fit] |
| COc1ccc(CCNC(=O)CSc2ccsc2[N+](=O)[O-])c(OC)c1 | inconclusive: 50.1 µM [inhibitor, partial curve, poor fit] |
| O=C(CC(CC(=O)c1ccc(Br)cc1)c1cccnc1)c1ccc(Br)cc1 | inactive |
| CC(=O)C1=CCC(c2cccs2)N(S(=O)(=O)c2ccc(C)cc2)C1 (centres undefined) | inconclusive: 56.2 µM [inhibitor, partial curve, poor fit] |
| O=S(=O)(N/N=C/c1cccc(OC2CSC2)c1)c1ccccc1 | inactive |
| CCc1ccc(NC(=O)c2ccc(F)c(S(=O)(=O)NC3CCCCCC3)c2)cc1 | inconclusive: 56.2 µM [inhibitor, partial curve, poor fit] |
| O=C1CN(Cc2ccc(-c3ccsc3)cc2)CCN1c1ccc(Cl)nn1 | inconclusive: 11.2 µM [inhibitor, partial curve, poor fit] |
| CCOC(=O)C1CCN(S(=O)(=O)c2cc(Br)cc3c2N(C(=O)C2CC2)CC3)CC1 | inactive |
| O=C(NCc1ccco1)c1cccc(-c2cncc3nccn23)c1 | inconclusive: 0.316 µM [inhibitor, full curve, poor fit] |
| COc1cccc(CNC(=O)CSc2ncc3c(n2)-c2cc(Cl)ccc2N(C)S3(=O)=O)c1 | inconclusive: 126 µM [inhibitor, single point] |
| O=C(Nc1ccccc1Cl)c1ccccc1Oc1ccc(C(F)(F)F)cc1[N+](=O)[O-] | inconclusive: 79.4 µM [inhibitor, single point] |
